No dose or concentration is given here for some results.

For the series, the system named is people with T2DM aged ≥ 65 year. Kind of series: Patient-level meta-analysis of EDITION 1, 2 and 3, participants aged ≥ 65 year, 1 year. The settings on record: human, in vivo.

Turning to insulin glargine [Gla-100], the “Mean (SD) daily basal insulin dose increase from baseline to 1 year” value is listed as 0.23 (0.25) U/kg. For the substance insulin glargine [Gla-300], the “Mean (SD) daily basal insulin dose increase from baseline to 1 year” value is 0.35 (0.27) U/kg.

(Values after publication PMC5907308, “21st Brazilian Diabetes Society Congress” (Diabetology & Metabolic Syndrome, 2018).)
